According to article PMC11535364:
No constants are given. Whether binding was seen depends on the method and setting. In cells and extracts the contact can be indirect. Some entries that bind do so weakly or less than the wild type. One block for each binder: values may come before it.

Sequences of proteins named here, by UniProt entry; tags and fusion partners are left off.
UniProt Q9DBL9: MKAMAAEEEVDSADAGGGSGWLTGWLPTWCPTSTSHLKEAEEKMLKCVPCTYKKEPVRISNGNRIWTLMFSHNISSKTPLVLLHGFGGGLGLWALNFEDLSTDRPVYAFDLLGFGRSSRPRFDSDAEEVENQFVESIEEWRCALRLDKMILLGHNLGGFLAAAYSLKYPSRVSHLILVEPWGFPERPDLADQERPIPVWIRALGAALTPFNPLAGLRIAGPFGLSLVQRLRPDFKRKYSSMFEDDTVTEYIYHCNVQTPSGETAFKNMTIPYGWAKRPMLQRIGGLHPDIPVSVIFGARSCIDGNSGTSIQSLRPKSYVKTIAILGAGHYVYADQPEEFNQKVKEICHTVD

Target: ABHD5 (mouse (endogenous in osteoblasts from mouse bone marrow MSCs)) (UniProt Q9DBL9)
Experiment: co-IP; cells lysed in RIPA buffer (50 mM Tris-HCl pH 7.4, 150 mM NaCl, 1% NP-40, 0.5% sodium deoxycholate, 0.1% SDS, 1 mM EDTA); protein A/G agarose beads with anti-PLIN1 or anti-ABHD5 antibody, 4°C; nonspecific IgG as control; Western blot for PLIN1, ABHD5 or ATGL; for ATGL, osteoblasts with and without lipid droplet treatment

binding: binds
B1: Perilipin 1 (PLIN1) (protein, UniProt Q8CGN5 1-517)
chain: MSMNKGPTLLDGDLPEQENVLQRVLQLPVVSGTCECFQKTYNSTKEAHPLVASVCNAYEKGVQGASNLAAWSMEPVVRRLSTQFTAANELACRGLDHLEEKIPALQYPPEKIASELKGTISTRLRSARNSISVPIASTSDKVLGATLAGCELALGMAKETAEYAANTRVGRLASGGADLALGSIEKVVEFLLPPDKESAPSSGRQRTQKAPKAKPSLVRRVSTLANTLSRHTMQTTAWALKQGHSLAMWIPGVAPLSSLAQWGASAAMQVVSRRQSEVRVPWLHNLAASQDESHDDQTDTEGEETDDEEEEEESEAEENVLREVTALPNPRGLLGGVVHTVQNTLRNTISAVTWAPAAVLGTVGRILHLTPAQAVSSTKGRAMSLSDALKGVTDNVVDTVVHYVPLPRLSLMEPESEFRDIDNPSAEAERKGSGARPASPESTPRPGQPRGSLRSVRGLSAPSCPGLDDKTEASARPGFLAMPREKPARRVSDSFFRPSVMEPILGRAQYSQLRKKS

binding: binds
B2: ATGL (enzyme, UniProt Q8BJ56 1-486)
chain: MFPRETKWNISFAGCGFLGVYHIGVASCLREHAPFLVANATHIYGASAGALTATALVTGACLGEAGANIIEVSKEARKRFLGPLHPSFNLVKTIRGCLLKTLPADCHERANGRLGISLTRVSDGENVIISHFSSKDELIQANVCSTFIPVYCGLIPPTLQGVRYVDGGISDNLPLYELKNTITVSPFSGESDICPQDSSTNIHELRVTNTSIQFNLRNLYRLSKALFPPEPMVLREMCKQGYRDGLRFLRRNGLLNQPNPLLALPPVVPQEEDAEEAAVVEERAGEEDQLQPYRKDRILEHLPARLNEALLEACVEPKDLMTTLSNMLPVRLATAMMVPYTLPLESAVSFTIRLLEWLPDVPEDIRWMKEQTGSICQYLVMRAKRKLGDHLPSRLSEQVELRRAQSLPSVPLSCATYSEALPNWVRNNLSLGDALAKWEECQRQLLLGLFCTNVAFPPDALRMRAPASPTAADPATPQDPPGLPPC
